Assay results taken from PubChem BioAssay AID540276 (National Center for Advancing Translational Sciences (NCATS), 2011).
Where “and” joins values, the source holds several entries; their conditions need not be identical. Identical values can stand only once. Out of some 300,000 compounds screened, about 5,400 (1.8%) were called active. The shares of active, inactive and inconclusive entries below differ from those in the screen. Calls come from the whole dose curve; tested in HEK293 cells. Potencies beside an inconclusive call are fits to weak or partial responses and may not hold up.

Assay: qHTS for inhibitors of binding or entry into cells for Marburg Virus
Settings: Marburg virus pseudotyped entry inhibition, cell reporter; activity change, negative = inhibition: at 37.8 µM (top of the series) unless noted
% is set by controls: 0 for no effect and ±100 for the full control effect; potency is the fitted concentration of half-maximal effect.

Row | Structure (SMILES) | Potency | activity change, negative = inhibition
1 | CCCCn1c(N2CCC(Cc3ccccc3)CC2)nc2c1c(=O)[nH]c(=O)n2C | inconclusive: 25.1 µM [inhibitor, single point] | –
2 | O=c1/c(=C/c2ccccn2)sc2nc3ccccc3n12 | inconclusive: 1.58 µM [activator, partial curve, poor fit] | –
3 | CCCn1cc(CN2CCC(C(=O)Nc3cccc(-c4cscn4)c3)CC2)c(C)n1 | inconclusive: 35.5 µM [inhibitor, single point] | –
4 | COc1ccc(C2/C(=C(/O)c3ccc(C)cc3)C(=O)C(=O)N2C)cc1 (stereo not drawn) | inconclusive: 2.82 µM [activator, single point] | –
5 | CC(C)N1C(=O)S/C(=C/c2ccc(Sc3nc4ccccc4[nH]3)o2)C1=O | inconclusive: 8.91 µM [inhibitor, partial curve, poor fit] | –
6 | COc1ccc(C2=NN(c3ccc(C(=O)O)cc3)C(c3ccc(OC)c(OC)c3)C2)cc1 (stereo not drawn) | – | inactive: 4.46% [at 46.1 µM]
7 | Cc1ccc(CNc2nc(-c3cccnc3)nc3ccccc23)cc1 | inconclusive: 20 µM [inhibitor, partial curve, poor fit] | –
8 | CN(C)CCCN(C(=O)c1ccc(N2C(=O)CCC2=O)cc1)c1nc2c(F)cccc2s1 | – | inactive: -4.56% [at 46.1 µM]
9 | O=C(C1COc2ccccc2O1)N1CCN(c2ccc(F)cc2)CC1 (stereo not drawn) | – | inactive: 12.6%
10 | O=C(Nc1c(-c2ccc(F)cc2)nc2ccccn12)c1ccccc1F | inconclusive: 35.5 µM [inhibitor, single point] | –
11 | COc1ccccc1C=NN=C(NN=Cc1ccccc1OC)NN=Cc1ccccc1OC | inconclusive: 20 µM [inhibitor, partial curve, poor fit] | –
12 | CCN(CCCNC(=O)CCc1nc(-c2ccc(OC)cc2)no1)c1cccc(C)c1 | inconclusive: 4.47 µM [inhibitor, single point] | –
13 | CCOC(=O)c1c(C)[nH]c(C2=NNC(=Nc3ccccc3OC)SC2)c1C | inconclusive: 18.4 µM [inhibitor, single point] | –
14 | O=C(CCCNC(=O)c1ccc(Cl)cc1)Nc1nccs1 | – | inactive: -3.82% [at 46.1 µM]
15 | COc1cc(/C=N/NC(=O)CCN2CCN(C(c3ccccc3)c3ccccc3)CC2)ccc1O | inconclusive: 22.4 µM [inhibitor, single point] | –
16 | CS(=O)(=O)Nc1ccc(C(=O)Nc2ccc(S(=O)(=O)N3CCCC3)cc2)cc1 | inconclusive: 2.51 µM [activator, full curve, poor fit] | –
17 | COc1ccc(CN2CCc3ccccc3C2)c(OC)c1 | – | inactive: -9.73% [at 46.1 µM]
18 | COc1ccc(/C=C2/SC(=O)N(CCNC(=O)C3COc4ccccc4O3)C2=O)cc1 (stereo not drawn) | – | inactive: -1.37%
19 | Cc1ccc(NC(=O)Cn2c(=O)n(-c3ccccc3)c(=O)c3ccc(C(=O)NCc4ccc5c(c4)OCO5)cc32)c(C)c1 | – | inactive: 1.01% [at 46.1 µM]
20 | Cc1ccsc1/C=N\NC(=O)c1cc(C(C)(C)C)[nH]n1 | – | inactive: 12.5%
21 | COc1cnn(-c2ccc(Br)cc2)c(=O)c1SCc1ccccc1 | inconclusive: 0.164 µM [activator, full curve, poor fit] | –
22 | COc1ccccc1OCCCOc1ccc([N+](=O)[O-])cc1Cl | inconclusive: 35.5 µM [inhibitor, single point] | –
23 | COc1ccc2nc(C)cc(N3CCN(c4ccccc4)CC3)c2c1 | inconclusive: 20 µM [inhibitor, single point] | –

Row | Structure (SMILES) | Potency | activity change, negative = inhibition
24 | CCOc1ccc(N/C(SCc2cccc([N+](=O)[O-])c2)=C(/C#N)C(N)=O)cc1 | – | inactive: -1.22% [at 46.1 µM]
25 | Cc1cccc(CNC(=O)c2ccc(NC(=O)N3CC(C)Sc4ccccc43)cc2)c1 (stereo not drawn) | – | inactive: 2.32% [at 46.1 µM]
26 | CCOC(=O)C1(C(=O)OCC)[C@H](c2ccccc2)C[C@H](O)N1C(C)=O | inconclusive: 8.91 µM [inhibitor, single point] | –
27 | COc1ccc(C=NN=C2c3ccccc3-c3ccccc32)cc1OC | – | inactive: -2.88%
28 | Cc1ccc(Cl)cc1S(=O)(=O)N1CCC(C(=O)NC2CCN(Cc3ccccc3)CC2)CC1 | inconclusive: 2.51 µM [inhibitor, partial curve, poor fit] | –
29 | COCCCNCCCCOc1ccc(C)cc1[N+](=O)[O-] | inconclusive: 20.6 µM [inhibitor, single point] | –
30 | Cc1ccccc1OCc1nc(-c2ccc(NC(=O)c3ccc4c(c3)OCO4)cc2)no1 | inactive and inconclusive: 7.08 µM [inhibitor, single point] | –
31 | CCc1cc2c3c(c1)C1(C(=O)N3C(C)(C)C=C2C)C(C#N)=C(N)Oc2[nH]c(=O)[nH]c(=O)c21 (stereo not drawn) | inconclusive: 20 µM [inhibitor, single point] | –
32 | CCC(CC)COC(=O)C(C#N)c1nc2ccccc2nc1N1CCN(CC)CC1 (stereo not drawn) | active: 5.17 µM | –
33 | COc1ccc(CN2CN(S(=O)(=O)c3cccs3)c3nc4ccccc4nc32)cc1 | – | inactive: -0.392%
34 | CCc1ccccc1NC(=O)CCCN1C(=O)c2cccnc2C1=O | inconclusive: 1.26 µM [activator, single point] | –
35 | CCOC(=O)C1CCN(C(=O)C2(NC(=O)Nc3ccccc3Cl)CCCCC2)CC1 | inconclusive: 5.01 µM [inhibitor, full curve, poor fit] | –
36 | CC(C)n1c(SCC(=O)N2CCCC2)nc2c1c(=O)n(C)c(=O)n2C | – | inactive: 27.2%
37 | CN(C)c1ccc(NC(=O)c2sc3nc4c(cc3c2N)N2CCC4CC2)cc1 | inconclusive: 14.1 µM [activator, single point] | –
38 | CN(C)c1ccc(/C=C(\C#N)C(=O)NCc2ccco2)cc1 | – | inactive: 27.4%
39 | CCc1ccccc1NC(=O)CNC(=O)c1cccc(S(=O)(=O)N2CCN(Cc3ccccc3)CC2)c1 | inconclusive: 35.5 µM [inhibitor, single point] | –
40 | COc1ccc(C(=O)NCC(=O)N/N=C/C=C/c2ccccc2)cc1OC | inconclusive: 5.17 µM [activator, partial curve] | –
41 | O=C(NNC(=O)c1ccccc1O)c1ccccc1O | inconclusive: 0.794 µM [inhibitor, partial curve, poor fit] | –
42 | C=CC[N+](C)(C)C/C(Cl)=C(\Cl)c1ccccc1 | inconclusive: 0.282 µM [inhibitor, partial curve, poor fit] | –
43 | CC(C)NC[C@@H](O)COc1ccc(CCOCC2CC2)cc1 | inactive | –
44 | COc1ccc(S(=O)(=O)N(CC(=O)Nc2cccc(C(F)(F)F)c2)c2ccc(C)cc2)cc1 | inconclusive: 10 µM [inhibitor, partial curve, poor fit] | –
45 | O=[N+]([O-])c1ccc(Oc2cnc3ccccc3n2)cc1 | – | inactive: -1.86% [at 46.1 µM]
46 | CC(C)(C)OC(=O)N1CCC(C(=O)N2CCCCCC2)CC1 | – | inactive: -9.73%

Row | Structure (SMILES) | Potency | activity change, negative = inhibition
47 | N#Cc1nc(-c2cccs2)oc1NCc1ccccc1 | – | inactive: 5.95% [at 46.1 µM]
48 | O=[N+]([O-])c1cc(C(F)(F)F)ccc1NCCOc1ccccc1 | inconclusive: 6.31 µM [activator, partial curve, poor fit] | –
49 | COc1cccc(CNC(=O)Cc2ccc(-n3c(=O)[nH]c4ccccc4c3=O)cc2)c1 | inconclusive: 8.91 µM [inhibitor, partial curve, poor fit] | –
50 | CCn1c(O)c(/C=C2\C=NN=C2c2ccccc2)sc1=S | – | inactive: -9.97%
51 | CCCC1C2C(=O)N(c3ccccc3OC)C(=O)C2ON1c1ccccc1 (stereo not drawn) | – | inactive: 1.91%
52 | O=C(c1ccc(Cl)cc1)C1C2C(=O)N(c3ccccc3)C(=O)C2C2CCCN21 (stereo not drawn) | inactive | –
53 | Cc1n[nH]c(C)c1S(=O)(=O)N1CCCC(C(=O)Nc2nccs2)C1 (stereo not drawn) | inconclusive: 20 µM [inhibitor, partial curve, poor fit] | –
54 | COc1ccc(OC)c(-c2csc(-c3c(N)c(C(=O)c4ccccc4)n4ccccc34)n2)c1 | inconclusive: 1.78 µM [activator, single point] | –
55 | Cc1noc(C)c1COc1ccc(C(=O)OCC(=O)N2CC3(C)CC2CC(C)(C)C3)cc1 (stereo not drawn) | inconclusive: 0.316 µM [inhibitor, partial curve, poor fit] | –
56 | CC(C)NCC(O)COc1ccc(COCCOC(C)C)cc1 (stereo not drawn) | inconclusive: 4.61 µM [activator, single point] and inconclusive: 2.24 µM [inhibitor, partial curve] | –
57 | C=C(C)[C@H]1Cc2c(ccc3c2O[C@@H]2COc4cc(OC)c(OC)cc4[C@@H]2C3=O)O1 | active: 580 nM and active: 708 nM | –
58 | CCCn1c(SCC(=O)Nc2ccc3c(c2)OCO3)n[nH]c1=O | – | inactive: 12% [at 46.1 µM]
59 | CCC(C)(C)n1nnnc1C(C(C)C)N(CCN1CCOCC1)Cc1cc2cccc(C)c2[nH]c1=O (stereo not drawn) | inconclusive: 25.9 µM [inhibitor, single point] | –
60 | O=C(N/N=C/c1c(O)n(CCc2ccccc2)c(=O)[nH]c1=O)c1ccccc1 | – | inactive: 17.4%
61 | CCc1ccc2nc3nc(C)cc(C)c3c(N)c2c1 | inconclusive: 9.2 µM [inhibitor, partial curve, poor fit] | –
62 | CN(Cc1ccco1)C(=O)Cn1cc(S(=O)(=O)N2CCCC2)c(S(=O)(=O)N2CCCC2)c1 | – | inactive: -14.6% [at 46.1 µM]
63 | CCOC(=O)N1CCN(C(=O)c2cccc(S(=O)(=O)Nc3ccc(F)cc3)c2)CC1 | inconclusive: 5.62 µM [inhibitor, single point] | –
64 | O=C(NCc1cccnc1)c1ccc2c(c1)N(Cc1ccccc1)CCS2 | inconclusive: 35.5 µM [inhibitor, partial curve, poor fit] | –
65 | Cc1cc(=O)n(C)c2ccccc12 | – | inactive: 4.72% [at 46.1 µM]
66 | CN(C)C1(CNC(=O)CC(NC(=O)c2ccccc2Cl)c2ccccc2)CCCCC1 (stereo not drawn) | inconclusive: 3.55 µM [inhibitor, partial curve, poor fit] | –
67 | Cc1ccc(C(=O)Nc2nc(=O)n(C)s2)cc1 | – | inactive: 19.8%
68 | O=C(NCc1ccc(Cl)cc1)C1CCN(S(=O)(=O)Cc2ccccc2)CC1 | – | inactive: -13.8% [at 46.1 µM]
